The record followed here is article PMC8406275.

By UniProt entry, the sequences of proteins in these tests, tags left out. Where a name states a change or a piece, a line headed by the entry shows the natural chain unless it says otherwise.
UniProt A5YKK6: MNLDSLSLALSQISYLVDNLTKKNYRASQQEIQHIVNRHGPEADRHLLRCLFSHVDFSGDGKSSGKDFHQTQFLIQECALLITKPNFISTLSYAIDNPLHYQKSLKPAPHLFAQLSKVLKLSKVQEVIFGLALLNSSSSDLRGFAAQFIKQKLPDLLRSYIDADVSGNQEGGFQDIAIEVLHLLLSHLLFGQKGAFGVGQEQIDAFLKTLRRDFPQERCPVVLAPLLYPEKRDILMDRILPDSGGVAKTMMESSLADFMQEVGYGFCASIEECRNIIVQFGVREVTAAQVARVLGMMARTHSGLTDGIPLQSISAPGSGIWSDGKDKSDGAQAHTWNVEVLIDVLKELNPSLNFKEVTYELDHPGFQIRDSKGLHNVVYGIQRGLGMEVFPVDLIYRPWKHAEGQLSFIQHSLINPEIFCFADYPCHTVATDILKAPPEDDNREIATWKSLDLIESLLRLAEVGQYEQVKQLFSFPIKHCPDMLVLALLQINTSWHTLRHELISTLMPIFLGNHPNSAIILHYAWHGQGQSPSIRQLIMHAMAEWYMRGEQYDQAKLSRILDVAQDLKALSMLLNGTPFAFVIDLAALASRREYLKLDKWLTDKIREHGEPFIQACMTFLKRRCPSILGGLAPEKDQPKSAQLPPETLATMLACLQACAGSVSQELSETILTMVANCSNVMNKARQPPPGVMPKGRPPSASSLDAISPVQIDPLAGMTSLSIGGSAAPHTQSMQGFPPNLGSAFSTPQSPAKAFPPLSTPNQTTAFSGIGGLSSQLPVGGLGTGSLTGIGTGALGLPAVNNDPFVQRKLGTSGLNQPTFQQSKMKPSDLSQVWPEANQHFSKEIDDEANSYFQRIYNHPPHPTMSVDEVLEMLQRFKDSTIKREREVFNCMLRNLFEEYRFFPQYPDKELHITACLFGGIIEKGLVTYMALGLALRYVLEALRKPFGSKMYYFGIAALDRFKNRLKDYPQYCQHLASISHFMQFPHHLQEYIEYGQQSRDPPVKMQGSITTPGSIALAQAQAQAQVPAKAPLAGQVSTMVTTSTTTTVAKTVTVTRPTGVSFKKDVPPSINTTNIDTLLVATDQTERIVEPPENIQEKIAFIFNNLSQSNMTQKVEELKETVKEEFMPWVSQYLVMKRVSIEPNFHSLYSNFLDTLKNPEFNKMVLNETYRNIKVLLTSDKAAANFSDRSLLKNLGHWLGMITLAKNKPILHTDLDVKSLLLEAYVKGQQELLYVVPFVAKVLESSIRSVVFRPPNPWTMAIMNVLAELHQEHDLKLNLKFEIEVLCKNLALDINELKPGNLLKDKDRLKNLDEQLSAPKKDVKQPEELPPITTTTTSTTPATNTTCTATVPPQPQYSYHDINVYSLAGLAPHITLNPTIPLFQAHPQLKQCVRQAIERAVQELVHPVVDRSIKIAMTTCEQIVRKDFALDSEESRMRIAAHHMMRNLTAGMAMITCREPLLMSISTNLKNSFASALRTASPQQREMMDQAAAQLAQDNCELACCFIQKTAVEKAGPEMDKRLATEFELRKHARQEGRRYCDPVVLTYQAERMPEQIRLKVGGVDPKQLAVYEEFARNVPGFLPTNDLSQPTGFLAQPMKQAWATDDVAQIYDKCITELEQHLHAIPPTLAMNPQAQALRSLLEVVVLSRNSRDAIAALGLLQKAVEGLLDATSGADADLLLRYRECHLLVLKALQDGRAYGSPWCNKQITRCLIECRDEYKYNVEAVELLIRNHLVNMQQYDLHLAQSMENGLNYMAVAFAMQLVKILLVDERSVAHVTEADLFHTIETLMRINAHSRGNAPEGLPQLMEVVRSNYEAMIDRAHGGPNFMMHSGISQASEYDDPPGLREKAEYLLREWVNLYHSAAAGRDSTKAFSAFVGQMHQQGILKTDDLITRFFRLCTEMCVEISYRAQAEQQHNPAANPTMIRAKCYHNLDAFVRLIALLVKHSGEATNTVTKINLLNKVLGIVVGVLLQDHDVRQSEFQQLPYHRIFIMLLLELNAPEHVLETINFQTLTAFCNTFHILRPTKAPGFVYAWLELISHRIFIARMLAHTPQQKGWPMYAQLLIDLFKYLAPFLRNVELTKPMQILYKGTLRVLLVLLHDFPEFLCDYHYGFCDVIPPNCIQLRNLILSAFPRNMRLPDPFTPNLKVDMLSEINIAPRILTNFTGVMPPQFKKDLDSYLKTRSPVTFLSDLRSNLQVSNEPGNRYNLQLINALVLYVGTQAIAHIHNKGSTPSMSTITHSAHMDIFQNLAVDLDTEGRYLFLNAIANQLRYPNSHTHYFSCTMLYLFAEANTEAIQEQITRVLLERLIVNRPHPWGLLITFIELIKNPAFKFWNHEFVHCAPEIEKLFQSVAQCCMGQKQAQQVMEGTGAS

Results are given in words; binding and its absence hold for the method and conditions named. Binding seen in cells or lysates may run through a third protein. For part of these data: A result given as binding can be weak or reduced; the word gives no strength. For part of these data: Where a sequence is shown, tags or fusion partners need not be part of it.

Common to all, as to assay: co-IP; Halo-V5-tagged WT or truncated YTHDF2 cotransfected with HA-tagged CNOT1 SH domain into 293T cells; lysed 48 h posttransfection in RIPA lysis buffer (50 mM Tris-HCl, 150 mM NaCl, 1% NP-40, 1% deoxycholate, 0.1% SDS, 1 mM EDTA); IP with anti-V5 antibody-conjugated magnetic beads; Western blot
Background: Immunoblotting shows a protein as a band on a membrane.

Assay [1] addresses T1, Halo-V5-tagged YTHDF2 fragment F5 (aa 368 to 579) (human) (UniProt Q9Y5A9).
T1 sequence: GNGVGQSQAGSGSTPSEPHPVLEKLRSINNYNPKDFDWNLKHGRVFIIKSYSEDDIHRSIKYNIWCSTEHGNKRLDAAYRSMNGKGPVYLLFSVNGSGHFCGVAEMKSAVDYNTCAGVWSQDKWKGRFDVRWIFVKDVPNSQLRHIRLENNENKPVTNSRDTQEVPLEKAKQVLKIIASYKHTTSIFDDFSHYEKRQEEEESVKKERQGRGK

Assay [2] addresses Halo-V5-tagged WT YTHDF2 (human) (UniProt Q9Y5A9).
Assay [3] concerns the target T2, Halo-V5-tagged YTHDF2 fragment F3 (aa 167 to 367) (human) (UniProt Q9Y5A9).
T2 sequence: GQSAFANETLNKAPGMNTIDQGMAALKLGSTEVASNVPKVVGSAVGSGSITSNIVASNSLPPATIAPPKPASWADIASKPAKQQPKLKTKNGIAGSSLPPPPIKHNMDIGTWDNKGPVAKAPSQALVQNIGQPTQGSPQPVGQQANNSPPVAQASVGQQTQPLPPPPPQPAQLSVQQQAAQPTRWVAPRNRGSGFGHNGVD

The target in assay [4] is T3, Halo-V5-tagged YTHDF2 fragment F2 (aa 1 to 367) (human) (UniProt Q9Y5A9).
T3 sequence: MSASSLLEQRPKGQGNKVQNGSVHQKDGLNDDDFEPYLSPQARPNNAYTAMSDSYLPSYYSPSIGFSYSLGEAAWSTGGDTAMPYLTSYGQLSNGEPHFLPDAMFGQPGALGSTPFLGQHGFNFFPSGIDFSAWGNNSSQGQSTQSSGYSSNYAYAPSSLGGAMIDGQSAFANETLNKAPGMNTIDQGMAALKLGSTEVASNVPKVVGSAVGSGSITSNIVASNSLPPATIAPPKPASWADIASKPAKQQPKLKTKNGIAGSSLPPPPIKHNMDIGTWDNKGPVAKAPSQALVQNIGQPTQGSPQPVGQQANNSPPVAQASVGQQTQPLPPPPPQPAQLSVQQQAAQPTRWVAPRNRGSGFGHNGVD

The target in assay [5] is T4, Halo-V5-tagged YTHDF2 fragment F4 (aa 167 to 579) (human) (UniProt Q9Y5A9).
T4 sequence: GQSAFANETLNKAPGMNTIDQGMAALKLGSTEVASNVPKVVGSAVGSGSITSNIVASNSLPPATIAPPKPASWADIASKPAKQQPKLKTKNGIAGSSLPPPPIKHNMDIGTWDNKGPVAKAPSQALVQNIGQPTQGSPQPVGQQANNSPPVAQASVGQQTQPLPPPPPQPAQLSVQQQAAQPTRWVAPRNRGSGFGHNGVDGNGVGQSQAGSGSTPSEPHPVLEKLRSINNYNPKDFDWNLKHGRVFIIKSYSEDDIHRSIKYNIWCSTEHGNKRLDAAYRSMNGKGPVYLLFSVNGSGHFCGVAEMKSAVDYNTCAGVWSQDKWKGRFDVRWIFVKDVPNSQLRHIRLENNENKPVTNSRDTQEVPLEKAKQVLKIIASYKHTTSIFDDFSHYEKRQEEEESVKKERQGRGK

Assay [6] concerns the target T5, Halo-V5-tagged YTHDF2 fragment F1 (aa 1 to 166) (human) (UniProt Q9Y5A9).
T5 sequence: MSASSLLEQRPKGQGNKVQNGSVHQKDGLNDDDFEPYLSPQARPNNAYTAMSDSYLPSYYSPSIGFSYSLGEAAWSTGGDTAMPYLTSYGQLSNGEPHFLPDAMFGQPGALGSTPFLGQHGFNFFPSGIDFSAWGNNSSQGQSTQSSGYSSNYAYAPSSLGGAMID

For “HA-tagged CNOT1 SH domain (from UniProt A5YKK6) (domain or fragment)”, the binding entry in assay [1] is listed as “binds”; in assay [2] it was “binds”; in assay [3] it was “no binding”; in assay [4], “binds”; in assay [5], “binds”; in assay [6], “no binding”.
